Results reported in PMC8139980.
For at least one entry, the source does not settle the construct or the ends of the probe.

Tests used:
hnRNP K KH3 domain [1] = target: hnRNP K KH3 domain (UniProt P61978); test: MST; details: MST: 20 nM Atto488-protein, PBS with Tween-20 (0.1% in 2x protein stock), 25 C; recombinant protein; single-stranded DNA
hnRNP K KH3 domain [2] = target: hnRNP K KH3 domain (UniProt P61978); test: ITC; details: ITC: 50 mM Tris pH 7.5, 150 mM NaCl, 20 C; recombinant protein; single-stranded DNA

CTCCCC [hnRNP K binding motif CTCCCC]
Kd (hnRNP K KH3 domain [1]): 11.9 µM | Kd (hnRNP K KH3 domain [2]): 13.8 µM
